Measured data: PubChem BioAssay AID652259 (Drosophila RNAi Screening Center, 2013)
The screen tested about 22,000 reagents; shown is a random part of those with a known target gene and a result. Of all reagents, 233 (1.1%) were called active. 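Light values are raw, unnormalised plate reads; the ratio scores behind the reporter calls were not deposited.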 Names joined by + are all predicted targets of the reagent. No sequences are given here. The record does not give: the amount of reagent, the time to read-out, the dose of the treatment.

- Screen: 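Knock-downs that push a Wingless-driven reporter up or down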 (primary screen)
- Cells: Drosophila clone 8 imaginal disc epithelial cells
- Reagent: long dsRNA against Drosophila genes
- Conditions: pathway stimulated by co-transfected Wingless expression plasmid
- Detection: 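Dual luciferase reads per well after Wingless plasmid stimulation: reporter firefly light and Renilla control light; activity is firefly divided by Renilla, a ratio not deposited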
- Scale: firefly reporter light: higher = more Wg reporter light, before normalisation; Renilla control light: higher = more transfected or surviving cells
- Rule for the call: 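Strong candidates differ from their plate mean by at least two out of four per-plate statistical tests; weak candidates meet just one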
- Meaning of the calls: active = candidate regulator (raises or lowers reporter); inactive = not a candidate

gene knocked down | dsRNA | firefly reporter light, replicate 1 | firefly reporter light, replicate 2 | Renilla control light, replicate 1 | Renilla control light, replicate 2 | Outcome
l(2)k01209 (lethal (2) k01209) | DRSC06889 | 5799 | – | 2450 | – | inactive
Pc (Polycomb) | DRSC11873 | 19496 | – | 3186 | – | inactive
CG12321 | DRSC14499 | 3445 | 7834 | 1804 | 2693 | inactive
sns (sticks and stones) | DRSC06423 | 2042 | 7196 | 212 | 620 | inactive
sns (sticks and stones) | DRSC07687 | 5898 | 11203 | 1335 | 4144 | inactive
sns (sticks and stones) | DRSC07688 | 6493 | – | 1704 | – | inactive
sns (sticks and stones) | DRSC07689 | 3513 | 9741 | 1044 | 2971 | inactive
sns (sticks and stones) | DRSC07691 | 3227 | 7936 | 832 | 2524 | inactive
sns (sticks and stones) | DRSC07692 | 4560 | 12503 | 363 | 1056 | inactive
CG8155 | DRSC07084 | 16661 | – | 2085 | – | inactive
CG8155 | DRSC21543 | 2.69e5 | 2.52e5 | 1.39e5 | 1.13e5 | inactive

Part of the list above, set out differently.
gene knocked down,dsRNA,"firefly reporter light, replicate 1","firefly reporter light, replicate 2","Renilla control light, replicate 1","Renilla control light, replicate 2",Outcome
sns (sticks and stones),DRSC07692,4560,12503,363,1056,inactive
CG8155,DRSC07084,16661,,2085,,inactive

Next reagents:
gene knocked down | dsRNA | firefly reporter light, replicate 1 | firefly reporter light, replicate 2 | Renilla control light, replicate 1 | Renilla control light, replicate 2 | Outcome
CG30109 | DRSC05675 | 18016 | – | 12077 | – | inactive
unc79 (uncoordinated 79) | DRSC15746 | 3100 | 5723 | 1639 | 2553 | inactive
slow (slowdown) | DRSC08589 | 5939 | – | 1792 | – | inactive
slow (slowdown) | DRSC08590 | 1990 | 5155 | 1322 | 2368 | inactive
CG6908 | DRSC16131 | 14304 | – | 3656 | – | inactive
Alp7 (Alkaline phosphatase 7) | DRSC04355 | 1975 | 6973 | 505 | 2064 | inactive
GC2 | DRSC14476 | 13943 | – | 4346 | – | inactive
CG34210 | DRSC04579 | 4441 | 10146 | 810 | 2252 | inactive
CG14194 | DRSC19549 | 19120 | – | 8490 | – | inactive
CG7407 | DRSC11824 | 7669 | – | 3090 | – | inactive
CG14131 | DRSC10135 | 6024 | – | 2673 | – | inactive
Ugt35D1 (UDP-glycosyltransferase family 35 member D1) | DRSC15107 | 16010 | – | 8023 | – | inactive
fz2 (frizzled 2) | DRSC09595 | 2010 | – | 1216 | – | inactive
fz2 (frizzled 2) | DRSC10087 | 9266 | – | 2118 | – | inactive
fz2 (frizzled 2) | DRSC11349 | 11916 | – | 4899 | – | inactive
neur + asRNA:CR31429 | DRSC17013 | 3365 | – | 1675 | – | inactive
Atg10 (Autophagy-related 10) | DRSC06172 | 4851 | 8201 | 101 | 3201 | inactive
Ms (Myosuppressin) | DRSC16041 | 3712 | 7212 | 1505 | 2066 | inactive
